Measured values reported in patent publication US8143031B2, “Production of N-acylated sulphur-containing amino acids with microorganisms having enhanced N-acyltransferase enzymatic activity” (Metabolic Explorer, priority 2008, dated 2012).
At least one compound was matched to its structure with a doubt left.

The chains behind the UniProt entries cited, without tags or fusion partners. Where a name states a change or a piece, a line headed by the entry shows the natural chain unless it says otherwise.
UniProt P76112: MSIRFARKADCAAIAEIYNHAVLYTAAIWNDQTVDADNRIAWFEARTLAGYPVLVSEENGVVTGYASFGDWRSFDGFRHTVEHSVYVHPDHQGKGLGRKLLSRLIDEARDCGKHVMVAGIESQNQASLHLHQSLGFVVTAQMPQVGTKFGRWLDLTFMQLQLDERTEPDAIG

Target: T1, YncA (Escherichia coli, UniProt P76112)
T1 construct: The purified protein was identified as YncA, a GCN5 related acyl transferase; made in house; host or cells: Untagged endogenous activity purified chromatographically from broken cells; E. coli is inferred
Assay: DTNB-based substrate and acyl-donor specificity test of YncA
Assay type: biochemical, E. coli
Experimental: Methionine L-amino-acid-N-acyl transferase activity was followed in microtiter plates by monitoring the apparition of HS-CoA with DTNB. The reaction solution, to which the sample was added, contained 200 mM Tris-HCl, pH 9.0, […], 3 mM Acetyl-coA and 20 mM methionine. Formation of the DTNB-CoA complex was monitored at 408 nm using a μQuant microtiter plate reader (BioTek Instruments, Inc., USA).
The substrate specificity was tested using the DTNB-based assay (see above).

N[C@@H](CC(=O)O)C(=O)O [Aspartate]
Specific Activity (Acetyl-coA as acyl-donor, various substrates): 7 mUI/mg protein
Activity as substrate of YncA (in words) (DTNB-based assay): Weak activities
